Laboratory results reported in US5596016A, “1,2-disubstituted aromatic chelates” (Albion International, Inc., priority 1994, dated 1997).

Assay: Iron excretion after oral dosing, sample weighed in grams (Table 2, headed Urine; evidently feces)
Assay type: in vivo, rats
Conditions: one gram sample of 15% iron
Protocol: Bioavailability: One gram samples of each of the above iron vanillin chelates and ferrous sulfate sales were administered orally to rats as a slurry consisting of one gram of sample contained in 4 ml of water. The samples were given via a syringe fitted with a balled needle and injected into the stomach of the animals. Each one gram sample of 15% iron would deliver 150 mg of Fe which is ten times the recommended daily allowance of iron for a human being of average size. Obviously, such a dosage is many times higher than required for the test animals considering that the rats weighed an average of about 125 grams each. One sample of two grams of chelate suspended as a slurry in 8 ml of water was found too be too much volume and overfilled the stomach of the rat resulting in the loss of some of the dosage.
The animals were observed over a two day (48 hour) period and their urine and feces were collected. At the end of the 48 hour period the animals were sacrificed and blood samples were taken.
There follows a comparison of the urine, feces and blood tests taken from the rats at 24 and 48 hours post dosage.

Substance: ferrous sulfate [FeSO4]
- Urine: Total Gm Sample (24 hours): 1.5 g
- Urine: Total Gm Sample (48 hours): 2.6 g
